Laboratory results taken from PubChem BioAssay AID651640 (Broad Institute, 2012).
About 6,000 (1.7%) of roughly 350,000 compounds were called active. This list was built around the results that the source calls inconclusive (neither active nor inactive); the mix of calls is not that of the screen. Cut-off read from the data, not from the text of the source: active = CPE inhibition above about 20% (passing the limit was not always enough); inconclusive = no clear call, values can overlap the other calls; tested in BHK-21 cells. Some structures have more than one record in an assay (separate samples or runs), and their calls can disagree.

assay: protection of cells from dengue 2 killing – plate reader, single concentration, primary screen (AID 651640); conditions: DENV2-infected cells, cytopathic effect rescue, at 9.99 µM, stronger effect = higher value;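 note: 0% = median of neutral control wells and 100% = median of positive control wells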

Row | Structure (SMILES) | CPE inhibition
1 | Cc1ccc(Cl)cc1N1CCN(CC(O)COC(C)C)CC1 (stereo unspecified) | active: 32.6%
2 | C/C=C/c1ccc2c(c1)O[C@H](CN(C)C(=O)Nc1ccc(C(F)(F)F)cc1)[C@@H](C)CN([C@@H](C)CO)S2(=O)=O | inactive: 10.8%
3 | CC(C)(C)SCCNC(=O)CN1C(=O)c2ccccc2S1(=O)=O | inconclusive: 27.3%
4 | COc1ccccc1N1CCN(S(=O)(=O)CCNC(=O)c2ccc(Br)o2)CC1 | inconclusive: 28.2%
5 | CCCCOc1ccc(CSc2nc(C)[nH]c2[N+](=O)[O-])cc1[N+](=O)[O-] | inactive: -7.12%
6 | COC(=O)C[C@H]1C[C@H]2c3cc(NC(=O)C4CCC4)ccc3O[C@H]2[C@@H](CO)O1 | inconclusive: 22.6%
7 | CN1c2ccc(-c3ccc(F)cc3)cc2[C@H]2[C@H](CCN2C(=O)c2ccncc2)[C@@H]1CO | inconclusive: 64.6%
8 | COc1ccc(Cl)cc1NC(=O)COC(=O)Cc1cccs1 | inconclusive: 59.4%
9 | CN(c1ccccc1)S(=O)(=O)c1cccc(NC(=O)c2cc(=O)c3ccccc3o2)c1 | inactive: -2.84%
10 | C[C@@H]1CCCCO[C@H](CN(C)Cc2ccc(C(F)(F)F)cc2)[C@H](C)CN([C@H](C)CO)C(=O)c2cc(NC(=O)Nc3ccc(C(F)(F)F)cc3)ccc2O1 | inconclusive: 43.6%
11 | COc1cccc(CNC(=O)c2nnn(CC(=O)Nc3c(C)cccc3C)c2N)c1 | inconclusive: 32.9%
12 | CC(C)NC(=O)c1ccc2c(c1)N(CC(=O)Nc1ccccc1F)C(=O)C(C)(C)O2 | inconclusive: 43.6%
13 | Cc1ccc(S(=O)(=O)N[C@H]2C=C[C@@H](CC(=O)N3CCC(Cc4ccccc4)CC3)O[C@H]2CO)cc1 | inactive: -16.6%
14 | CSc1nc2sccc2c(=O)[nH]1 | inconclusive: 45.9%
15 | O=C(C[C@H]1C=C[C@H](NC(=O)C2CCC2)[C@@H](CO)O1)NC1CCC1 | inactive: -9.94%
16 | CCNC(=O)C[C@@H]1CC[C@@H]2[C@H](COC[C@@H](O)CN2C(=O)c2cc(Cl)cc(Cl)c2)O1 | inactive: -9.02%
17 | CCc1ccc(O)c(CNCCNCc2cc(CC)ccc2O)c1 | active: 72.8%
18 | O=c1cc(CSc2nnc(-c3ccccc3)o2)c2ccccc2[nH]1 | active: 76.4%
19 | C/C=C/c1ccc(C2[C@@H]3CN(S(=O)(=O)c4ccc(C)cc4)C[C@H]2N3)cc1 (stereo partly specified) | inconclusive: 24.1%
20 | O=C(Nc1cc(Cl)cc(Cl)c1)N[C@@H]1CC[C@@H](CCNS(=O)(=O)c2cccc(F)c2)O[C@H]1CO | inconclusive: 24.8%
21 | C[C@@H]1CCCCO[C@H](CN(C)Cc2ccc(C(=O)O)cc2)[C@@H](C)CN([C@H](C)CO)C(=O)c2cc(N(C)C)ccc2O1 | inconclusive: 28.1%
22 | Cc1ccc(C(=O)N/C(=C/c2ccc(Cl)cc2)C(=O)N2CCOCC2)cc1 | inactive: -0.436%
23 | OC(CN1CCCCC1)Cn1c2ccc(Cl)cc2c2cc(Cl)ccc21 (stereo unspecified) | inactive: -4.51%
24 | COCC(=O)N(C)C[C@@H]1Oc2ncc(C#Cc3ccc(OC)cc3)cc2C(=O)N([C@@H](C)CO)C[C@H]1C | active: 67.8%

A different layout for part of the listing above.
Row,Structure (SMILES),CPE inhibition
2,C/C=C/c1ccc2c(c1)O[C@H](CN(C)C(=O)Nc1ccc(C(F)(F)F)cc1)[C@@H](C)CN([C@@H](C)CO)S2(=O)=O,inactive: 10.8%
6,COC(=O)C[C@H]1C[C@H]2c3cc(NC(=O)C4CCC4)ccc3O[C@H]2[C@@H](CO)O1,inconclusive: 22.6%
7,CN1c2ccc(-c3ccc(F)cc3)cc2[C@H]2[C@H](CCN2C(=O)c2ccncc2)[C@@H]1CO,inconclusive: 64.6%
12,CC(C)NC(=O)c1ccc2c(c1)N(CC(=O)Nc1ccccc1F)C(=O)C(C)(C)O2,inconclusive: 43.6%
17,CCc1ccc(O)c(CNCCNCc2cc(CC)ccc2O)c1,active: 72.8%
20,O=C(Nc1cc(Cl)cc(Cl)c1)N[C@@H]1CC[C@@H](CCNS(=O)(=O)c2cccc(F)c2)O[C@H]1CO,inconclusive: 24.8%

Further entries

Row | Structure (SMILES) | CPE inhibition
25 | O=C(CSc1nnc2ncccn12)Nc1cccc2ccccc12 | inconclusive: 26.4%
26 | O=C(c1ccccc1Br)N1CCN(Cc2ccc3c(c2)OCO3)CC1 | active: 50.3%
27 | Cc1cc(C)nc(/N=C2\NC(=O)CC(C(=O)O)N2CCc2c[nH]c3ccccc23)n1 (stereo unspecified) | inconclusive: 31.2%
28 | Cc1nc(SCc2nc3c(O)cccc3[nH]2)c2oc3ccccc3c2n1 | inconclusive: 34.1%
29 | CCCCC[C@@H]1C=C(C(=O)O)[C@H](c2ccc3c(c2)OCO3)N1S(=O)(=O)c1ccc(C)cc1 | active: 30.6%
30 | CCCNC(=O)N(C)C[C@@H]1Oc2ncc(C#CC3(O)CCCC3)cc2C(=O)N([C@H](C)CO)C[C@H]1C | inconclusive: 28.2%
31 | CNC[C@@H]1OCCCC[C@@H](C)Oc2ccc(NC(=O)C3CCCCC3)cc2C(=O)N([C@H](C)CO)C[C@H]1C | inconclusive: 25.9%
32 | COc1ccc(C(=O)Nc2cc(C)on2)cc1OC | inconclusive: 22.6%
33 | CCC(=O)Nc1nnc(S(=O)(=O)N2CCCC2)s1 | inconclusive: 25.5%
34 | Cc1cc(=O)oc2c(C)c(OCC(=O)N3CCN(c4ccc(F)cc4)CC3)ccc12 | inconclusive: 33.1%
35 | COc1ccc(CN(C)C[C@@H]2Oc3ccc(NC(=O)NC(C)C)cc3CC(=O)N([C@H](C)CO)C[C@@H]2C)cc1 | inactive: 3.99%
36 | COc1ccc(NC(=O)COC(=O)c2c(C)noc2C)cc1Cl | active: 38.8%
37 | CC(C)NC(=O)Nc1ccc2c(c1)C(=O)N([C@@H](C)CO)C[C@@H](C)[C@H](CN(C)C(=O)Nc1ccc(C(F)(F)F)cc1)OCCCC[C@@H](C)O2 | inconclusive: 31.8%
38 | Cc1[nH]n(-c2ccccc2)c(=O)c1N=Nc1cccc([N+](=O)[O-])c1 | inconclusive: 29.2%
39 | C[C@@H]1CCCCO[C@@H](CN(C)C(=O)Nc2ccc(F)cc2)[C@H](C)CN([C@H](C)CO)C(=O)c2cc(NC(=O)NC3CCCCC3)ccc2O1 | inconclusive: 24.1%
40 | C#Cc1ccc([C@@H]2C=C(C(=O)N3CCOCC3)O[C@H](OCC)[C@H]2CCCO)cc1 | inconclusive: 48.2%
41 | C[C@H]1CCCCO[C@H](CN(C)S(=O)(=O)c2ccccc2)[C@@H](C)CN([C@@H](C)CO)C(=O)c2cc(NC(=O)Nc3ccc(C(F)(F)F)cc3)ccc2O1 | inactive: -3.15%
42 | CN(C)CC#Cc1ccc([C@@H]2[C@@H](CO)N3CCCCN(C(=O)Nc4ccccc4F)C[C@H]23)cc1 | inconclusive: 42.8%
43 | CCN1[C@@H]2c3ccc(-c4ccccc4F)c(=O)n3C[C@H]1[C@H](CO)[C@H]2C(=O)N1CCCCC1 | inactive: 7.5%
44 | CN(C)CCOC(=O)NC12CC3CC(CC(C3)C1)C2 | inconclusive: 34.1%
45 | CCCN1C[C@H](C)[C@@H](OC)CN(C)C(=O)c2ccc(NC(=O)c3cccc(OC)c3)cc2OC[C@H]1C | inactive: 19.8%
46 | COc1ccc(NS(=O)(=O)c2ccc3c(c2)CCN3C(=O)CCC(=O)O)cc1OC | inconclusive: 24.7%
47 | Cc1cccc(NC(=O)c2nc[nH]c2C(=O)N[C@@H](CCCCNC(=O)OC(C)(C)C)C(=O)OC(C)(C)C)c1 | inconclusive: 65.7%
48 | Cc1ccc(S(=O)(=O)Nc2cc3c4c(c2)CCC(=O)N4CCC3)cc1 | inconclusive: 42.8%

Row | Structure (SMILES) | CPE inhibition
49 | COc1cc([C@@H]2CC=C(C(=O)O)[C@H](c3ccc(Cl)cc3)N2S(=O)(=O)c2ccc(C)cc2)cc(OC)c1OC | inconclusive: 31.1%
50 | Cc1ccc(/C=C2/C(=O)ON=C2c2ccccc2)o1 | active: 41.7%
51 | COc1ccc(CN(C)C[C@@H]2Oc3ccc(NS(C)(=O)=O)cc3C(=O)N([C@H](C)CO)C[C@H]2C)cc1 | active: 24.7%
52 | C[C@@H]1CN([C@@H](C)CO)C(=O)Cc2cc(NC(=O)Cc3ccccc3)ccc2O[C@H]1CN(C)C(=O)Nc1ccc(C(F)(F)F)cc1 | inactive: -5.32%
53 | CCNC(=O)C[C@@H]1CC[C@H]2[C@@H](COc3ccc(NC(=O)Nc4c(C)noc4C)cc3C(=O)N2C)O1 | inconclusive: 36.2%
54 | COc1ncnc(OC)c1S(=O)(=O)NCc1ccccc1 | inactive: 2.89%
55 | COc1ccc(NS(=O)(=O)c2cccc(C(=O)NN=Cc3cc(Br)c(O)c(Br)c3)c2)cc1 | inconclusive: 22.4%
56 | O=S(=O)(c1ccc(F)c(F)c1)N1CCN(S(=O)(=O)c2cccs2)CC1 | inconclusive: 23.8%
57 | Cc1ccc(C)c(S(=O)(=O)N2CCN(C(C)C(=O)Nc3ccccc3-c3ccccc3)CC2)c1 (stereo unspecified) | inactive: -1.99%
58 | Cc1ccc(S(=O)(=O)N[C@@H]2CC[C@@H](CCNC(=O)C3CC3)O[C@@H]2CO)cc1 | inconclusive: 40.5%
59 | COCC(=O)N1CC(=O)N2[C@H](CO)[C@H](c3ccc(C#CCc4ccccc4)cc3)[C@@H]2C1 | inactive: -16%
60 | C[C@@H]1CN([C@@H](C)CO)C(=O)c2cccc(NS(=O)(=O)c3cn(C)cn3)c2O[C@@H]1CN(C)C(=O)NC1CCCCC1 | inconclusive: 27%
61 | CCCNC(=O)N1[C@@H]2CNC[C@H]1C2c1ccc(-c2cccc(C#N)c2)cc1 (stereo partly specified) | active: 20.7%
62 | C[C@@H]1CN([C@@H](C)CO)C(=O)Cc2cc(NC(=O)Cc3cn(C)c4ccccc34)ccc2O[C@@H]1CN(C)Cc1ccc(C(F)(F)F)cc1 | active: 77%
63 | O=C(C[C@H]1CC[C@@H]2[C@H](COC[C@H](O)CN2S(=O)(=O)c2ccccc2)O1)NCCN1CCCC1 | active: 27.7%
64 | O=S(=O)(Nc1ccc(Br)cc1)c1cccc(NS(=O)(=O)c2cccs2)c1 | inconclusive: 30.8%
65 | CC(C)c1ccccc1NC(=O)C1CC(=O)N(C2CCCC2)C1 (stereo unspecified) | inconclusive: 39.7%
66 | O=C1c2ccccc2NC(c2cccc(F)c2)N1Cc1ccco1 (stereo unspecified) | inactive: -2.28%
67 | O=C(CC(F)(F)F)N1C[C@H]2[C@@H](c3ccccc31)[C@@H](CO)N2CC1CCCCC1 | inconclusive: 23.4%
68 | Cc1ccc(S(=O)(=O)N(C)C[C@H]2Oc3ccc(NC(=O)Cc4ccccc4)cc3C(=O)N([C@H](C)CO)C[C@@H]2C)cc1 | active: 66.2%
69 | C(=C\c1ccccc1)/CN1CCN(C(c2ccccc2)c2ccccc2)CC1 | inconclusive: 46.3%
70 | COc1ccccc1-c1cnc2c(c1)C(=O)N([C@@H](C)CO)C[C@@H](C)[C@H](CN(C)Cc1cncnc1)O2 | inconclusive: 68.6%
71 | CC(=O)N1CC[C@H]2[C@@H]1c1cc(-c3ccc(C#N)cc3)ccc1N(C)[C@H]2CO | inconclusive: 21.5%
